Columns and labels:
[1] = Interference in common clinical chemical tests, Ortho-Clinical Diagnostics Vitros 250 analyzer; design: species or system human; conditions: 10 mmol/L d,1-GA or 5 mmol/L 1-GA, mean; for Creatinine: Vitros 250 (enzymatic method); for AST / Albumin / Alk Phos / Bilirubin / Calcium / Chloride / Potassium / Protein / Sodium / Total CO2 / Urea / Glucose: Vitros 250; for Glucose: plasma, six diabetic patients
[2] = Interference in common clinical chemical tests, Dade Behring RxL analyzer; design: species or system human; conditions: 10 mmol/L d,1-GA or 5 mmol/L 1-GA, mean; for Creatinine: Dade Behring RxL (alkaline picrate method); for AST / Albumin / Alk Phos / Bilirubin / Calcium / Chloride / Potassium / Protein / Sodium / Total CO2 / Urea / Glucose: Dade Behring RxL; for Glucose: plasma, six diabetic patients
[3] = Interference in common clinical chemical tests, Hitachi 747 analyzer; design: species or system human; conditions: 10 mmol/L d,1-GA or 5 mmol/L 1-GA, mean; for Creatinine: Hitachi 747 (enzymatic method); for AST / Albumin / Alk Phos / Bilirubin / Calcium / Chloride / Potassium / Protein / Sodium / Total CO2 / Urea / Glucose: Hitachi 747; for Glucose: plasma, six diabetic patients
[4] = system: patient whole blood specimens; assay: Efficacy of d,1-GA in patient specimens: initial glucose vs glucose after 8 hours incubation; assay type: cell-based, human; conditions: 10 mmol/L d,1-GA, FIG. 3
Source text: Results are presented by plotting initial glucose concentration against glucose concentrations either in the presence or absence of d,1-GA (FIG. 3).

O=C[C@@H](O)CO [1-GA, 1-glyceraldehyde]
Creatinine [1]: 80 µmol/L | AST [1]: 35 U/L | Albumin [1]: 38 g/L | Alk Phos [1]: 77 U/L | Bilirubin [1]: 15.4 µmol/L | Calcium [1]: 2.2 µmol/L | Chloride [1]: 109 mmol/L | Potassium [1]: 4.6 mmol/L | Protein [1]: 66 g/L | Sodium [1]: 143 mmol/L | Total CO2 [1]: 25 mmol/L | Urea [1]: 6.4 µmol/L | Glucose [1]: 10.9 mmol/L | Creatinine [2]: 194 µmol/L | AST [2]: 26 U/L | Albumin [2]: 37 g/L | Alk Phos [2]: 76 U/L | Bilirubin [2]: 6.8 µmol/L | Calcium [2]: 2.2 µmol/L | Chloride [2]: 105 mmol/L | Potassium [2]: 4.5 mmol/L | Protein [2]: 66 g/L | Sodium [2]: 140 mmol/L | Total CO2 [2]: 24 mmol/L | Urea [2]: 5.4 µmol/L | Glucose [2]: 10.6 mmol/L | Creatinine [3]: 88 µmol/L | AST [3]: 29 U/L | Albumin [3]: 37 g/L | Alk Phos [3]: 84 U/L | Bilirubin [3]: 6.8 µmol/L | Calcium [3]: 2.1 µmol/L | Chloride [3]: 105 mmol/L | Potassium [3]: 4.6 mmol/L | Protein [3]: 63 g/L | Sodium [3]: 139 mmol/L | Total CO2 [3]: 26 mmol/L | Urea [3]: 5.7 µmol/L | Glucose [3]: 10.5 mmol/L

O=CC(O)CO (centres unmarked) [d,1-GA, d,1-glyceraldehyde]
slope, initial glucose vs glucose after 8 hours ([4]; linear regression): 1.01 | intercept, initial glucose vs glucose after 8 hours ([4]; without additive −2.2 mmol/L): 0.3 mmol/L | Creatinine [1]: 71 µmol/L | AST [1]: 33 U/L | Albumin [1]: 38 g/L | Alk Phos [1]: 76 U/L | Bilirubin [1]: 15.4 µmol/L | Calcium [1]: 2.1 µmol/L | Chloride [1]: 110 mmol/L | Potassium [1]: 4.6 mmol/L | Protein [1]: 65 g/L | Sodium [1]: 142 mmol/L | Total CO2 [1]: 25 mmol/L | Urea [1]: 6.4 µmol/L | Glucose [1]: 10.9 mmol/L | Creatinine [2]: 327 µmol/L | AST [2]: 23 U/L | Albumin [2]: 37 g/L | Alk Phos [2]: 76 U/L | Bilirubin [2]: 8.6 µmol/L | Calcium [2]: 2.2 µmol/L | Chloride [2]: 105 mmol/L | Potassium [2]: 4.5 mmol/L | Protein [2]: 65 g/L | Sodium [2]: 140 mmol/L | Total CO2 [2]: 24 mmol/L | Urea [2]: 5.4 µmol/L | Glucose [2]: 10.5 mmol/L | Creatinine [3]: 80 µmol/L | AST [3]: 25 U/L | Albumin [3]: 36 g/L | Alk Phos [3]: 83 U/L | Bilirubin [3]: 6.8 µmol/L | Calcium [3]: 2.1 µmol/L | Chloride [3]: 105 mmol/L | Potassium [3]: 4.6 mmol/L | Protein [3]: 63 g/L | Sodium [3]: 139 mmol/L | Total CO2 [3]: 25 mmol/L | Urea [3]: 5.7 µmol/L | Glucose [3]: 10.5 mmol/L

From patent publication US6632844B1, “Methods and compositions for preserving glucose level in blood specimens” (Washington University, priority 2000, dated 2003)
